According to PubChem BioAssay AID493014 (National Center for Advancing Translational Sciences (NCATS), 2011):
The whole screen tested about 340,000 compounds, of which about 170 (0.05%) were called active. The shares of active, inactive and inconclusive entries below differ from those in the screen. The call rests on the fitted dose curve; in most records, active means well fitted inhibition curve with a large enough effect in the signal ratio, with a control signal flat (not every such curve was filed as active); inconclusive means small, poorly fitted or top-dose-only effect, or effect the other way, or a change in a side signal; inactive means flat fitted curve, though single readings scatter; the % refers to the signal ratio. A potency beside an inconclusive call is a rough fit, not a confirmed value.

assay: qHTS Assay to Find Inhibitors of Chronic Active B-Cell Receptor Signaling; settings: ABC-DLBCL IkBa-CBG/CBR reporter, luminescence ratio (green luciferase fused to IkBa over red control in TMD8 lymphoma cells), 4 h; activity change, negative = inhibition: at 46.1 µM (top of the series);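 on activity change, negative = inhibition: plate controls were basal doxycycline-induced cells for no effect and cells given 10 µM MG132 for full effect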
Method in brief: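 TMD8 human ABC-DLBCL cells with doxycycline-inducible IκBα–green luciferase fusion and unfused red luciferase, in 0.5% FBS medium; compounds up to 46 uM, 4 h at 37C. Green/red luminescence ratio, filter-overlap corrected, fitted to concentration-response curves.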
Potency means the concentration at half of the fitted maximal effect.

| SMILES | activity change, negative = inhibition | Potency |
| --- | --- | --- |
| CCOC(=O)c1c(NS(=O)(=O)c2ccccc2)n(CCCOC)c2nc3ccccc3nc12 | inactive: 6.93% | – |
| COc1ccc(C(=O)Nc2ccccc2C(=O)N/N=C/c2ccccn2)cc1OC | – | inconclusive: 15.8 µM [falling, partial curve] |
| C=CCn1c(O)c(Cc2ccc(OCC)cc2)c(=O)[nH]c1=O | inconclusive: -2.31% | – |
| Nc1nc(F)nc2c1ncn2[C@@H]1O[C@H](CO)[C@@H](O)[C@@H]1O | inconclusive: 1.82% | – |
| O=C(Cn1cc(C(=O)c2ccccc2)c2ccccc21)NCc1ccco1 | inconclusive: -5.32% | – |
| CC(=O)c1ccccc1NC(=O)C1C2CCC(O2)C1C(=O)O (stereo unspecified) | inconclusive: 13.3% | – |
| Cc1c(C(c2ccc(Br)cc2)c2c(O)c3ccccc3oc2=O)c(=O)n(-c2ccccc2)n1C (stereo unspecified) | – | inconclusive: 12.6 µM [falling, partial curve, poor fit] |
| COC(=O)C1=C(c2ccccc2OCc2ccccc2)C[C@@H]2CC[C@H]1N2C(=O)NC1CCN(Cc2ccccc2)CC1 | inconclusive: -1.96% | – |
| CS/C(N)=N/N=C/c1c(O)ccc2ccccc12 | – | inconclusive: 28.2 µM [falling, single point] |
| CN1C2CCC1CC(OC(=O)c1ccc(Cl)cc1)C2 (stereo unspecified) | inactive: 7.64% | – |
| Cc1nn(-c2ccccc2)c2c1C(c1ccc3c(c1)OCO3)SCC(=O)N2 (stereo unspecified) | – | inconclusive: 20.6 µM [falling, partial curve, poor fit] |
| O=C(N/N=C\C1C(=O)NC(=S)N(c2ccccc2)C1=O)c1ccc(O)cc1 (stereo unspecified) | inconclusive: 366% | – |
| COC(=O)C[C@]1(C(=O)OC)CN(C#N)N(c2ccc(Cl)cc2)C12c1ccccc1-c1ccccc12 | – | inconclusive: 14.6 µM [rising, partial curve, poor fit] |
| Cc1ccc(Cn2cccc(C(=O)Nc3cc(C)on3)c2=O)cc1 | inconclusive: 14.9% | – |
| CCCOP(=O)(OCCC)C(NC(=O)c1cc(OC)c(OC)c(OC)c1)c1ccccc1 (stereo unspecified) | inactive: -4.91% | – |
| CC1C(=O)N(Cc2ccccc2F)c2ccccc2N1C(=O)c1c(F)cccc1F (stereo unspecified) | inconclusive: -4.19% | – |
| O=[As](O)(O)c1ccc(N=Nc2ccc(O)cc2)cc1 | – | inconclusive: 11.2 µM [rising, partial curve] |
| CCC[N+]12CCC(CC1)C(=C(c1ccccc1)c1ccccc1)C2 | inactive: -4.18% | – |
| FC(F)(F)Oc1ccc(Nc2nc3ccccc3o2)cc1 | inconclusive: 2.03% | – |
| O=C(c1ccc(Cl)cc1)C1CCCN(Cc2cccc3cccnc23)C1 (stereo unspecified) | inactive: -14.5% | – |
| CN1CCN(c2nc(N)c(Br)c(Cl)n2)CC1 | inconclusive: -13.4% | – |
| Clc1ccc(OCC#CCN2CCCC2)cc1 | inactive: 10.3% | – |
| NNC(N)=O | inactive: 3.18% | – |
| COc1cc(C)c(CNCCc2c[nH]c3ccccc23)cc1C | – | inconclusive: 22.4 µM [falling, partial curve, poor fit] |
| Fc1ccc(Cn2nnnc2CN2CCC(n3nnc4cc(C(F)(F)F)ccc43)CC2)cc1 | inconclusive: -2.9% | – |
| O=[N+]([O-])c1ccc2c(c1)C(c1ccccc1)=NCCN2 | – | inconclusive: 35.5 µM [falling, single point] |

In a second layout: results already given
SMILES | activity change, negative = inhibition | Potency
COc1ccc(C(=O)Nc2ccccc2C(=O)N/N=C/c2ccccn2)cc1OC | – | inconclusive: 15.8 µM [falling, partial curve]
COC(=O)C1=C(c2ccccc2OCc2ccccc2)C[C@@H]2CC[C@H]1N2C(=O)NC1CCN(Cc2ccccc2)CC1 | inconclusive: -1.96% | –

Going on with the list:

| SMILES | activity change, negative = inhibition | Potency |
| --- | --- | --- |
| CCOC(=O)c1cc2c(cn1)[nH]c1ccccc12 | – | inconclusive: 18.4 µM [falling, single point] |
| CCC(=NCCc1c[nH]c2ccccc12)c1c(O)n(C)c(=O)n(C)c1=O | inconclusive: 22.8% | – |
| COC(=O)N(c1ccc(OC)cc1)P1(=S)OCCC(C)O1 (stereo unspecified) | inconclusive: 20.5% | – |
| CC(C(=O)c1ccc2ccccc2c1)N1CCCCC1 (stereo unspecified) | inconclusive: 1.76% | – |
| O=C1CC(c2ccco2)Cc2nc(Nc3nc(-c4ccccc4)c4ccccc4n3)ncc21 (stereo unspecified) | inconclusive: -9.4% | – |
| Cc1ccc2nc(/C(C#N)=C\c3ccc(OC(=O)c4cccs4)cc3)[nH]c2c1 | inconclusive: 10.9% | – |
| O=C1NC(=O)C(=Cc2coc3ccccc3c2=O)C(=O)N1 | – | inconclusive: 31.6 µM [rising, single point] |
| CCc1ccc(N2C(=O)NC(=O)/C(=C/c3cccn3CCOc3ccc(C)cc3)C2=O)cc1 | inactive: -6.6% | – |
| Cc1ccc(OCC(=O)NCCN2CCN(C(=O)COc3ccc(C)cc3)CC2)cc1 | inactive: 2.1% | – |
| C=C(C=O)CC1CC(O)[C@]2(C)OC3CC4OC5C[C@]6(C)O[C@]7(C)CCC8OC9C[C@]%10(C)OC%11C(C)=CC(=O)OC%11CC%10OC9C[C@@H](C)C8OC7CC6O[C@]5(C)CC5OC5C4OC3CC2O1 (stereo partly specified) | inactive: -7.78% | – |
| Cn1c2ccccc2c2c(C(=O)N3CCC4(CC3)OCCO4)cn(C3CCCCC3)c(=O)c21 | inconclusive: -14.6% | – |
| CCCCCc1nc2ccccc2c(=O)n1-c1ccc(Cl)cc1[N+](=O)[O-] | inconclusive: -14.8% | – |
| CCN(CC)C(=O)c1ccc(NC(=O)c2c(C)noc2C)cc1 | inactive: -0.755% | – |
| O=c1c2ccccc2nc(/C=C/c2ccccc2F)n1-c1ccccc1O | – | inconclusive: 7.94 µM [falling, partial curve] |
| Cc1cccn2c(=O)c3c(nc12)N1CCC(Cc2ccccc2)CC1C1(C3)C(=O)N(C)C(=O)N(C)C1=O (stereo unspecified) | inactive: 13.8% | – |
| CC1=NN(C(=O)c2ccoc2C)C(O)(C(F)(F)F)C1 (stereo unspecified) | – | inconclusive: 35.5 µM [rising, single point] |
| CCN1CCN(Cc2ccccc2C)CC1 | inconclusive: 8.9% | – |
| BrCCc1ccccc1 | inactive: -1.81% | – |
| CCCCn1c(=O)c(C(=O)Nc2ccccc2)c(O)c2ccccc21 | inactive: 8.52% | – |
| CN1CCC(N(C)c2nc(-c3ccccc3)nc3ccccc23)CC1 | inconclusive: -1.56% | – |
| COc1ccc2c(CN3CC=C(c4ccccc4)CC3)cc(=O)oc2c1 | inconclusive: -20.3% | – |
| COc1cccc(N=Nc2c(O)[nH]c(=S)[nH]c2=O)c1 | – | inconclusive: 31.6 µM [falling, partial curve] |
| Cc1ccc(-n2c(C)cc(/C=C3/C(=O)NC(=O)N(Cc4ccco4)C3=O)c2C)cc1 | inconclusive: -2.07% | – |
| CCN1C[C@]2(COC)CC[C@H](O)[C@]34C1[C@](O)([C@@H](OC)[C@H]23)[C@@]1(O)C[C@H](OC)[C@H]2C[C@@H]4[C@@H]1[C@H]2OC | inactive: 2.62% | – |
| COc1ccccc1CCNC(=O)CCC(=O)N1CC2C[C@@H](C1)Cn1c2cccc1=O | inactive: -10.4% | – |
| COC(=O)C1=C(c2cccc(OCc3ccccc3)c2)C[C@@H]2CC[C@H]1N2C(=O)NCc1cc(C)oc1C(F)(F)F | inconclusive: -0.393% | – |

| SMILES | activity change, negative = inhibition | Potency |
| --- | --- | --- |
| COC(=O)C1=C(c2ccc(Cl)c(C(F)(F)F)c2)C[C@@H]2CC[C@H]1N2C(=O)NCCOc1ccccc1 | inconclusive: -6.69% | – |
| CC(C)N1C(=O)NC(=O)C2(Cc3cc([N+](=O)[O-])ccc3N(C)C2c2ccccc2)C1=O (stereo unspecified) | inconclusive: -10% | – |
| Cc1oc(-c2ccccc2Cl)nc1CN1C(=O)CN=C(c2ccccc2)c2ccccc21 | inconclusive: -8.38% | – |
| COCCOC(=O)c1c(N)n(Cc2ccc(OC)cc2)c2nc3ccccc3nc12 | inconclusive: 14% | – |
| Cc1cccc(N2C(=O)NC(=O)/C(=C\c3cccn3-c3ccc(Cl)cc3)C2=O)c1 | – | inconclusive: 35.5 µM [rising, single point] |
| C=C1C(=O)O[C@H]2C[C@@H](C)[C@@H]3C=CC(=O)[C@@]3(C)C[C@H]12 | – | inconclusive: 1.78 µM [falling, partial curve, poor fit] |
| O=C(NCc1cccnc1)Nc1ccc([N+](=O)[O-])cc1 | inconclusive: -11.2% | – |
| C[C@@H]1CC[C@H]2[C@@H](C)C(=O)O[C@@H]3O[C@@]4(C)CC[C@@H]1[C@]32OO4 | inconclusive: -4.43% | – |
| CCOc1ccc2nc(N=Nc3c(O)[nH]c(=S)[nH]c3=O)sc2c1 | inconclusive: 16.4% | – |
| CCOc1ccccc1CN1C2CCC1CC(c1ccc(C)cc1)C2 (stereo unspecified) | inactive: -0.119% | – |
| Cc1ccc(S(=O)(=O)Cc2ccc(C(=O)N3CCN(c4cccc(C)c4C)CC3)o2)cc1 | – | active: 12.6 µM |
| COc1ccc(C2C([N+](=O)[O-])=C(N)Oc3c2c(=O)oc2ccccc32)cc1 (stereo unspecified) | – | inconclusive: 18.4 µM [falling, partial curve] |
| Cc1ccc(N2C(=O)NC(=O)/C(=C\c3ccoc3)C2=O)cc1 | inactive: 3.1% | – |
| CN1CCN(c2ccc([N+](=O)[O-])c(N3CCCCC3)c2)CC1 | inconclusive: 21.8% | – |
| Cc1ccc(C(O)(c2ccc(C)c(C)c2)C2CN3CCC2CC3)cc1C (stereo unspecified) | – | inconclusive: 20 µM [falling, partial curve, poor fit] |
| COC(=O)C(Cc1ccc(N(CCCl)CCCl)cc1)N=Cc1ccccc1O (stereo unspecified) | inconclusive: -3.1% | – |
| CCOP(=O)(C#CC(C)(C)C)C(C)(O)c1ccccc1 (stereo unspecified) | inconclusive: -0.756% | – |
| C=CCN1CC[C@]23c4c5ccc(O)c4OC2C(=O)CC[C@@]3(O)C1C5 (stereo partly specified) | inactive: -1.79% | – |
| COC(=O)C1=C(c2cccc(OCc3ccccc3)c2)C[C@@H]2CC[C@H]1N2C(=O)NCc1ccccc1OC | inconclusive: -8.02% | – |
| COC(=O)C1=C(c2ccc(F)cc2OCc2ccccc2)C[C@@H]2CC[C@H]1N2C(=O)NCc1ccc(F)cc1 | – | inconclusive: 16.4 µM [falling, partial curve, poor fit] |
| COC12CCC3(CC1C(C)(O)C(C)(C)C)[C@H]1Cc4ccc(OC5OC(C(=O)O)[C@@H](O)C(O)[C@H]5O)c5c4[C@@]3(CCN1CC1CC1)C2O5 (stereo partly specified) | inconclusive: 3.56% | – |
| CC(C)C1(C)N=C(c2ncccc2C(=O)O)NC1=O (stereo unspecified) | inconclusive: 0.63% | – |
| NCC(CC(=O)O)C1CCCCC1 (stereo unspecified) | inconclusive: 3.13% | – |
| COc1ccc(CCn2c(O)c(C=NCCCN(C)C)c(=O)[nH]c2=O)cc1OC | inconclusive: -17.5% | – |

Among those listed so far, nine have fluorine.

| SMILES | activity change, negative = inhibition | Potency |
| --- | --- | --- |
| Nc1nc(F)nc2c1ncn2[C@@H]1O[C@H](CO)[C@@H](O)[C@@H]1O | inconclusive: 1.82% | – |
| CC1C(=O)N(Cc2ccccc2F)c2ccccc2N1C(=O)c1c(F)cccc1F (stereo unspecified) | inconclusive: -4.19% | – |
| FC(F)(F)Oc1ccc(Nc2nc3ccccc3o2)cc1 | inconclusive: 2.03% | – |
| Fc1ccc(Cn2nnnc2CN2CCC(n3nnc4cc(C(F)(F)F)ccc43)CC2)cc1 | inconclusive: -2.9% | – |
| O=c1c2ccccc2nc(/C=C/c2ccccc2F)n1-c1ccccc1O | – | inconclusive: 7.94 µM [falling, partial curve] |
| CC1=NN(C(=O)c2ccoc2C)C(O)(C(F)(F)F)C1 (stereo unspecified) | – | inconclusive: 35.5 µM [rising, single point] |
| COC(=O)C1=C(c2cccc(OCc3ccccc3)c2)C[C@@H]2CC[C@H]1N2C(=O)NCc1cc(C)oc1C(F)(F)F | inconclusive: -0.393% | – |
| COC(=O)C1=C(c2ccc(Cl)c(C(F)(F)F)c2)C[C@@H]2CC[C@H]1N2C(=O)NCCOc1ccccc1 | inconclusive: -6.69% | – |
| COC(=O)C1=C(c2ccc(F)cc2OCc2ccccc2)C[C@@H]2CC[C@H]1N2C(=O)NCc1ccc(F)cc1 | – | inconclusive: 16.4 µM [falling, partial curve, poor fit] |
